The nature of data set [1]: Aqueous solubility of the compound. The settings on record: buffer.
Data set [2] is described as follows: Lipophilicity, log D of the compound. The note with it: octanol/water.

In ChEMBL document CHEMBL3232969, “Structure-based design and synthesis of tricyclic IAP (Inhibitors of Apoptosis Proteins) inhibitors” (Bioorg Med Chem Lett, 2014) one finds solubility and logD data, which are given here for one compound.

By solubility is commonly meant the concentration that dissolves in the medium under given conditions. Read a low solubility as little dissolved substance. The term logD denotes the decadic logarithm of the distribution of all forms, ionised or not, between an organic phase and buffer at a given pH. A lower logD goes with lower lipophilicity.

A value given as a limit tells only on which side of the number the result lay.

For `CN[C@@H](C)C(=O)N[C@H]1CCC[C@H]2C[C@H]3CCN(C(=O)OCc4ccccc4)C[C@H]3N2C1=O`, the solubility in data set [1] was over 1000 µM. In data set [2], this compound gave a logD of 1.1.
